The results in this text go back to the supplement of paper PMC6411743.

Chains of the proteins cited; added tags and fusions are not shown. Lines headed by an entry give the natural chain unless they say otherwise; changes in a name come on top.
UniProt Q9H4B0: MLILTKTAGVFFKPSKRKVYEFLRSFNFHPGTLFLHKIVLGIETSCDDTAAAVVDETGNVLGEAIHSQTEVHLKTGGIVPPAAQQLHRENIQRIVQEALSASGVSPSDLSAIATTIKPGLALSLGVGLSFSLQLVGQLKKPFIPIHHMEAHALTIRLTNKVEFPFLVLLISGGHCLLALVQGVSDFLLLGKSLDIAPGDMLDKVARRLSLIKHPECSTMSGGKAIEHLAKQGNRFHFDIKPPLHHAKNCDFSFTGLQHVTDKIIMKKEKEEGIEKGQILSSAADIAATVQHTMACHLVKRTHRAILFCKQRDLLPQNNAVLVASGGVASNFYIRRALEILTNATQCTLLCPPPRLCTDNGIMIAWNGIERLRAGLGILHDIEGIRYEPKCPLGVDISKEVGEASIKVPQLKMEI
UniProt Q9H944: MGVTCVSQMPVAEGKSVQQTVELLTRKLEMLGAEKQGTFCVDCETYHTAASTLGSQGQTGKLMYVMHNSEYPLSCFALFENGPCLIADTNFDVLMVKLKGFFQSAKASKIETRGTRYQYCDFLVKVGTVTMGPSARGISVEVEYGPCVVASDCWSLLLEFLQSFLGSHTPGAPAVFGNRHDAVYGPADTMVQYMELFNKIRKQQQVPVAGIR
UniProt Q9HC52: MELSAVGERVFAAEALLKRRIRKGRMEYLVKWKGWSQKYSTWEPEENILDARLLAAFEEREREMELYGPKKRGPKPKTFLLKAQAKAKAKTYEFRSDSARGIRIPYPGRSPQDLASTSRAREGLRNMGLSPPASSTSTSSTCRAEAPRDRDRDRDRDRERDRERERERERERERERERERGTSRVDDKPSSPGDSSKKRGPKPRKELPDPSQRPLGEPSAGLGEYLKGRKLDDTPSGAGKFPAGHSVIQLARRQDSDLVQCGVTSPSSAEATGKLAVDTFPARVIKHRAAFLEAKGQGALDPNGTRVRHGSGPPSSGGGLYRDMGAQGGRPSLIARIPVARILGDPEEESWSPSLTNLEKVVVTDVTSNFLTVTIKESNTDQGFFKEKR
UniProt Q9NPF5, whole entry: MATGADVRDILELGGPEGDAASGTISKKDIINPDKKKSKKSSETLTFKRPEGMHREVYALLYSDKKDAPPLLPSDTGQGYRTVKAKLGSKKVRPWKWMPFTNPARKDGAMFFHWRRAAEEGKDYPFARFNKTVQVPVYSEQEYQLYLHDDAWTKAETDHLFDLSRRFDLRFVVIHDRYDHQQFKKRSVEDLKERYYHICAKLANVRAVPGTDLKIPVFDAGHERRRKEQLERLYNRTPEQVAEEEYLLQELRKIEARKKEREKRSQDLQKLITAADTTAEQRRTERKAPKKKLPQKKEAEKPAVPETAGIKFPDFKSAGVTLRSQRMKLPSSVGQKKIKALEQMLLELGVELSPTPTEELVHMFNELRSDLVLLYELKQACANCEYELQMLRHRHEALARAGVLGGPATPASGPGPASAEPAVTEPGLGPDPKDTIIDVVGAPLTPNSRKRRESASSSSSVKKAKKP
UniProt Q9H4Z3: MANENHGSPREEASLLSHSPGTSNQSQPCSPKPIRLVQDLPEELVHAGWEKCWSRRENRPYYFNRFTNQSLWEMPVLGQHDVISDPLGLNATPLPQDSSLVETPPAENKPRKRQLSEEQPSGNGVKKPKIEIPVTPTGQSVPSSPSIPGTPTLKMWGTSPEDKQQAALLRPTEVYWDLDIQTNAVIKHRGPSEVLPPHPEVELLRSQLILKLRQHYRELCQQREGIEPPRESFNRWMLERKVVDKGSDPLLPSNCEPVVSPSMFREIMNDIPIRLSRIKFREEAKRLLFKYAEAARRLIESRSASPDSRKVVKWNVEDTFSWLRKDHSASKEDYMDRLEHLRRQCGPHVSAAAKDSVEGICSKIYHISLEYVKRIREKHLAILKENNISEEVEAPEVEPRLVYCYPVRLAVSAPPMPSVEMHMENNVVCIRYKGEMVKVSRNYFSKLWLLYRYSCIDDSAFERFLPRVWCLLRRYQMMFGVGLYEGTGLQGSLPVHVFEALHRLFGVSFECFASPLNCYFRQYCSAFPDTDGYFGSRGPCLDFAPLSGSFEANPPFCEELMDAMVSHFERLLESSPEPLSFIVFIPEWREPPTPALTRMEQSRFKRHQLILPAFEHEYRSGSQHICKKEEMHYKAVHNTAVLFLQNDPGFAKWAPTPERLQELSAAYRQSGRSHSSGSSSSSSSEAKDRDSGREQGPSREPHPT
UniProt Q9HAB8: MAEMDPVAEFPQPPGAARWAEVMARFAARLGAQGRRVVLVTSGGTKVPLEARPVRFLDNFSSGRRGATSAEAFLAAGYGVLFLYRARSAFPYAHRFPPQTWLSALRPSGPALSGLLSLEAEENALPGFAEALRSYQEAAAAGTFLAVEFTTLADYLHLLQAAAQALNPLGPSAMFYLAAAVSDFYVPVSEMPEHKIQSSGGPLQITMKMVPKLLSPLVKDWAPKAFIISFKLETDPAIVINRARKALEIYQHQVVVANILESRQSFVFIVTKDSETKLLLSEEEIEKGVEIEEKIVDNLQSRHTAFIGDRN
UniProt Q9GZQ3, whole entry: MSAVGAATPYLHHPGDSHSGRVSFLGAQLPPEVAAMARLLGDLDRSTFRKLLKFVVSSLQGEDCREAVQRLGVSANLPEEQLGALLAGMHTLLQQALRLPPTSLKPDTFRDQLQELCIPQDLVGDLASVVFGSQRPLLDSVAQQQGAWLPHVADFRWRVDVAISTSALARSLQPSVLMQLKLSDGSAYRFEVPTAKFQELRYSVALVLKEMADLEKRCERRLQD
UniProt Q9H668: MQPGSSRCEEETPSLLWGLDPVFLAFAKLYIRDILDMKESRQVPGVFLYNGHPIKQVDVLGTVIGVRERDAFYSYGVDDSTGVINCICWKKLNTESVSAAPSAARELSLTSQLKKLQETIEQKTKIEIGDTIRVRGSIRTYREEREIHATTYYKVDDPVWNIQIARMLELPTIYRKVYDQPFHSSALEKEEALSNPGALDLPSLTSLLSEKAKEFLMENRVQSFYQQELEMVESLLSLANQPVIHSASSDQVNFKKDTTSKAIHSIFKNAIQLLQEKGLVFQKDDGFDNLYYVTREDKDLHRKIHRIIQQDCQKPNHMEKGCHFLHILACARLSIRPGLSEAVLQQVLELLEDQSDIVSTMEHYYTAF
UniProt Q9H871: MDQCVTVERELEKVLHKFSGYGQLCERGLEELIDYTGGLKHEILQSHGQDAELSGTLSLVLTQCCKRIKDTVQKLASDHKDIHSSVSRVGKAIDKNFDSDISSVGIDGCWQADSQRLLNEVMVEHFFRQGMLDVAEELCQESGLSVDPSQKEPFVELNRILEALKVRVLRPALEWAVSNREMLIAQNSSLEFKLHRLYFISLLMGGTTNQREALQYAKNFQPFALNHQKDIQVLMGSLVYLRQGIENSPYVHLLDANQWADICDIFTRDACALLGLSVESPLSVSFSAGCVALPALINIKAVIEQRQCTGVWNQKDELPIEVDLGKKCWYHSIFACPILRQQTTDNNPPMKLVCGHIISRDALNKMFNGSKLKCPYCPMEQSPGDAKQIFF
UniProt Q9H1K1: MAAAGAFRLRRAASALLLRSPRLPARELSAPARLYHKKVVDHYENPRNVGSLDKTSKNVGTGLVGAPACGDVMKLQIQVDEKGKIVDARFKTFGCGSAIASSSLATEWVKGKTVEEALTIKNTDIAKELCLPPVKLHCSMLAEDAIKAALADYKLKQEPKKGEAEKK
UniProt Q9NTW7: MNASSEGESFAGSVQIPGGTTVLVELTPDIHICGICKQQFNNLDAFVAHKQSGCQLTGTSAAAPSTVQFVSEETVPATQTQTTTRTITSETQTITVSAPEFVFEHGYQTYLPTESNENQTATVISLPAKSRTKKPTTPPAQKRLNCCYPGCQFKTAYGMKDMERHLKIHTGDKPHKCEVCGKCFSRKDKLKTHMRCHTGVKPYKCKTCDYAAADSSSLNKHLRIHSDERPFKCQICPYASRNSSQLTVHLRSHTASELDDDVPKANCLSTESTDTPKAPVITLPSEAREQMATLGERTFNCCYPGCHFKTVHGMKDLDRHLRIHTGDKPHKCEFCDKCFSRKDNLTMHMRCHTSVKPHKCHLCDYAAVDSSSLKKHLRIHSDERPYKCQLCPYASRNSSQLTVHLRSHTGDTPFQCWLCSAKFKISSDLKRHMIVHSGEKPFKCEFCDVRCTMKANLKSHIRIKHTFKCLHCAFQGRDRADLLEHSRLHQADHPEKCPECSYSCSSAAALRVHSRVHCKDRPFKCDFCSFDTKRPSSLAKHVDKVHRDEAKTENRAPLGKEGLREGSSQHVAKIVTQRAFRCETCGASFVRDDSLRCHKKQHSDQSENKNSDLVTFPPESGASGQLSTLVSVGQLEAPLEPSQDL
UniProt Q9H0G5: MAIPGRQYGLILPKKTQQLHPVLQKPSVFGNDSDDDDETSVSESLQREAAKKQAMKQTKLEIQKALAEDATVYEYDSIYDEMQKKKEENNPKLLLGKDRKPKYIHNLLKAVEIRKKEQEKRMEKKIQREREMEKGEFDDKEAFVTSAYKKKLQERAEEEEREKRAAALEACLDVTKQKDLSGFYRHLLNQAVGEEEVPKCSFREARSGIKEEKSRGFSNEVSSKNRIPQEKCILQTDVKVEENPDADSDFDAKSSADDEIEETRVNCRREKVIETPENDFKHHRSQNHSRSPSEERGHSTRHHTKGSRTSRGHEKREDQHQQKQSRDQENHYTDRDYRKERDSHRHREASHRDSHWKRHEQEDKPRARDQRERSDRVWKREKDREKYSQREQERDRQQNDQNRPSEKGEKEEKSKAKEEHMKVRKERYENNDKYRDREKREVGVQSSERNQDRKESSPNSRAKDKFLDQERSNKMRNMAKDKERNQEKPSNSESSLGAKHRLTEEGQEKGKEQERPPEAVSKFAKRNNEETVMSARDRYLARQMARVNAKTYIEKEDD
UniProt Q9NPA8: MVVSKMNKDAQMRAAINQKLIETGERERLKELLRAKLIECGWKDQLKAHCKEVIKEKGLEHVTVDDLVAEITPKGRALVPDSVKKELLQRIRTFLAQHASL
UniProt Q9H098: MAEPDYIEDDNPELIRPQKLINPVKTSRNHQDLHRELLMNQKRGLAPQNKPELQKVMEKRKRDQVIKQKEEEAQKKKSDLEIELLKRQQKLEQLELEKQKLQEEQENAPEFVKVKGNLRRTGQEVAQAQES
UniProt Q9H2H8: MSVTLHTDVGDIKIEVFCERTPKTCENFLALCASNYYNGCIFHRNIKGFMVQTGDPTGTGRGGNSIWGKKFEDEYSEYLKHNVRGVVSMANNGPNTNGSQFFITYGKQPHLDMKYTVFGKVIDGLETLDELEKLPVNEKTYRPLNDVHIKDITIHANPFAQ
UniProt Q9H334: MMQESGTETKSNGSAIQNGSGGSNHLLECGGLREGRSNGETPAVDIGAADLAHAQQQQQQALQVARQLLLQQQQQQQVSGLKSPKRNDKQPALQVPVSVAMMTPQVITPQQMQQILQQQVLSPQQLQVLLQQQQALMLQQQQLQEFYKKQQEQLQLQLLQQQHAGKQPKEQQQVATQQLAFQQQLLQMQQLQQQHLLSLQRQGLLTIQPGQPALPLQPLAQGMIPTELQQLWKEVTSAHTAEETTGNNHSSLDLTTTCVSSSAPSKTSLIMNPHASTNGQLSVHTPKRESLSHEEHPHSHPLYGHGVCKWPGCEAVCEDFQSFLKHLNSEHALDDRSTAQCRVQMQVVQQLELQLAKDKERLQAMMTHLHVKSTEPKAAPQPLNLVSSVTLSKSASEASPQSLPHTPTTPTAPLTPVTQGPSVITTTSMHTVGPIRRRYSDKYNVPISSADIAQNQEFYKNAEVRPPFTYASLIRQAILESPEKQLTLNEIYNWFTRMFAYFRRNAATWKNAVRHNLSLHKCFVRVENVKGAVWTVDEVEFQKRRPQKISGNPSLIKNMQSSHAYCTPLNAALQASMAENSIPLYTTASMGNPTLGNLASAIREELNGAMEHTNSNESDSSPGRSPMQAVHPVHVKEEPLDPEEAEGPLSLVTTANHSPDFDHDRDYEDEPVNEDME
UniProt Q9C0F1: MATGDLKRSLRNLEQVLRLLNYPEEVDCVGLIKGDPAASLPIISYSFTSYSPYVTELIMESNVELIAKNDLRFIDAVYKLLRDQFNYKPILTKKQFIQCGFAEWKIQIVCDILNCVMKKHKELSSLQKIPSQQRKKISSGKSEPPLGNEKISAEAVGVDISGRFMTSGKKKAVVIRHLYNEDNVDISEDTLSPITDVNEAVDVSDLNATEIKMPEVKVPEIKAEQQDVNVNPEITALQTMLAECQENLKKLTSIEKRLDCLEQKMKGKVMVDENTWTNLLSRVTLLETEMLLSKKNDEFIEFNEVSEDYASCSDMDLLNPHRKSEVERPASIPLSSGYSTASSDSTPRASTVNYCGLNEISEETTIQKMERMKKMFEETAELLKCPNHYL
UniProt Q9H8W4: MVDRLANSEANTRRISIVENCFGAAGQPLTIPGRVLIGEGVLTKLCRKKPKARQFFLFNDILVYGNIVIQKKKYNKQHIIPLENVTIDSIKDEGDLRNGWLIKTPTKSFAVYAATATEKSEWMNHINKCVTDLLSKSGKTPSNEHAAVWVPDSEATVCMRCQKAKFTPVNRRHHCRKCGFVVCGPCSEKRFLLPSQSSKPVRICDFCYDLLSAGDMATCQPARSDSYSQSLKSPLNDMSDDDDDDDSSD

Compound in the assay: Nc1ncnc2c1ncn2[C@@H]1O[C@H](COP(=O)(O)OP(=O)(O)NP(=O)(O)O)[C@@H](O)[C@H]1O [adenylyl imidodiphosphate]
Description: NP40-soluble protein abundance relative to vehicle (solubility fold change) (ratio); higher = more soluble protein in presence of AMP-PNP. A digest of the protocol: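 Across three independent experiments, values are fold changes against the detergent-processed vehicle for each replicate, based on vsn-normalised intensities. The samples were Jurkat crude lysate treated with eight concentrations (0.1 to 10 mM) for 10 min at room temperature and then 3 min at 37 °C. Lysate was solubilised with 0.8% NP40 and benzonase, ultracentrifuged, and the supernatant analysed by TMT-labelled LC-MS/MS.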

± gives the standard deviation of the averaged measurements. The entries are a selection whose mix differs from that of the whole data set. Most values lie at the level of the controls, where differences are scatter.

Turning to OSGEPL1 (UniProt Q9H4B0), the NP40-soluble protein abundance by setting is: (concentration: 0.1mM) 1.06 ± 0.048; (concentration: 0.5mM) 1.03 ± 0.025.

Turning to SEPSECS (UniProt Q9HD40), the NP40-soluble protein abundance reads like this: (concentration: 0.1mM) 1.01 ± 0.011; (concentration: 0.5mM) 0.968 ± 0.05.

Regarding MED20 (UniProt Q9H944), the NP40-soluble protein abundance by setting is: (concentration: 0.1mM) 0.987 ± 0.034; (concentration: 0.5mM) 1.01 ± 0.044.

Take ANKZF1 (UniProt Q9H8Y5): the NP40-soluble protein abundance reads like this: (concentration: 0.1mM) 0.999 ± 0.041; (concentration: 0.5mM) 0.998 ± 0.042.

For SCAF1 (UniProt Q9H7N4), the NP40-soluble protein abundance is 0.989 ± 0.042 (concentration: 0.1mM) and 1.04 ± 0.033 (concentration: 0.5mM).

Consider UniProt Q9GZR1 and related entries, for which the NP40-soluble protein abundance (concentration: 0.1mM) came to 0.983 ± 0.017 and the NP40-soluble protein abundance (concentration: 0.5mM) stood at 0.993 ± 0.019.

On to UniProt Q9HCE5, for which the NP40-soluble protein abundance worked out at 0.96 ± 0.035 (concentration: 0.1mM) and 0.999 ± 0.05 (concentration: 0.5mM).

UniProt Q9NNW7 and related entries: the NP40-soluble protein abundance came out at 1.01 ± 0.021 (concentration: 0.1mM) and 0.996 ± 0.013 (concentration: 0.5mM).

In the case of ADNP (UniProt Q9H2P0), the NP40-soluble protein abundance runs as follows: (concentration: 0.1mM) 1 ± 0.035; (concentration: 0.5mM) 1.01 ± 0.021.

Consider GAN (UniProt Q9H2C0), for which the NP40-soluble protein abundance (concentration: 0.1mM) came to 1.01 ± 0.047 and the NP40-soluble protein abundance (concentration: 0.5mM) was determined as 1 ± 0.037.

Take CBX8 (UniProt Q9HC52): the NP40-soluble protein abundance by setting is: (concentration: 0.1mM) 1.02 ± 0.024; (concentration: 0.5mM) 1.011 ± 0.0052.

In the case of UniProt Q9H3H3-2|Q9H3H3-3, the NP40-soluble protein abundance runs as follows: (concentration: 0.1mM) 1.01 ± 0.028; (concentration: 0.5mM) 0.967 ± 0.066.

Take UniProt Q9H0S4 and related entries: the NP40-soluble protein abundance (concentration: 0.1mM) amounted to 1.05 ± 0.029 and the NP40-soluble protein abundance (concentration: 0.5mM) came out at 1.05 ± 0.057.

For SSU72 (UniProt Q9NP77), the NP40-soluble protein abundance came to 0.993 ± 0.015 (concentration: 0.1mM) and 1.05 ± 0.021 (concentration: 0.5mM).

Take UniProt Q9H074 and related entries: the NP40-soluble protein abundance is, setting by setting: (concentration: 0.1mM) 1.06 ± 0.079; (concentration: 0.5mM) 0.961 ± 0.023.

As to DMAP1 (UniProt Q9NPF5), the NP40-soluble protein abundance (concentration: 0.1mM) was 0.979 ± 0.042 and the NP40-soluble protein abundance (concentration: 0.5mM) came out at 1.02 ± 0.012.

As for PCIF1 (UniProt Q9H4Z3), the NP40-soluble protein abundance runs as follows: (concentration: 0.1mM) 0.956 ± 0.075; (concentration: 0.5mM) 1.02 ± 0.12.

As for UniProt Q9H0W9 and related entries, the NP40-soluble protein abundance by setting is: (concentration: 0.1mM) 0.977 ± 0.022; (concentration: 0.5mM) 0.988 ± 0.02.

Regarding POFUT1 (UniProt Q9H488), the NP40-soluble protein abundance is, setting by setting: (concentration: 0.1mM) 0.996 ± 0.054; (concentration: 0.5mM) 0.978 ± 0.024.

As to TMEM165 (UniProt Q9HC07), the NP40-soluble protein abundance runs as follows: (concentration: 0.1mM) 1.04 ± 0.03; (concentration: 0.5mM) 1.06 ± 0.063.

For the target UniProt Q9BZK7 and related entries, the NP40-soluble protein abundance by setting is: (concentration: 0.1mM) 1.03 ± 0.015; (concentration: 0.5mM) 1.01 ± 0.049.

For the target WDR33 (UniProt Q9C0J8), the NP40-soluble protein abundance reads like this: (concentration: 0.1mM) 0.996 ± 0.015; (concentration: 0.5mM) 1.02 ± 0.022.

As for PPCS (UniProt Q9HAB8), the NP40-soluble protein abundance (concentration: 0.1mM) is 1.01 ± 0.017 and the NP40-soluble protein abundance (concentration: 0.5mM) was found to be 1.02 ± 0.015.

For the target UniProt Q9GZQ3 and related entries, the NP40-soluble protein abundance stood at 1.01 ± 0.05 (concentration: 0.1mM) and 1.03 ± 0.093 (concentration: 0.5mM).

UniProt Q9H668: the NP40-soluble protein abundance reads like this: (concentration: 0.1mM) 1.01 ± 0.027; (concentration: 0.5mM) 0.989 ± 0.015.

UniProt Q9H871: the NP40-soluble protein abundance stood at 1.01 ± 0.029 (concentration: 0.1mM) and 0.979 ± 0.013 (concentration: 0.5mM).

As for ZNF407 (UniProt Q9C0G0), the NP40-soluble protein abundance came to 0.983 ± 0.033 (concentration: 0.1mM) and 0.988 ± 0.024 (concentration: 0.5mM).

In the case of UniProt Q9H8P0 and related entries, the NP40-soluble protein abundance worked out at 0.973 ± 0.1 (concentration: 0.1mM) and 1.02 ± 0.073 (concentration: 0.5mM).

In the case of UniProt Q9H7E2-3, the NP40-soluble protein abundance stood at 1.03 ± 0.042 (concentration: 0.1mM) and 1.03 ± 0.041 (concentration: 0.5mM).

In the case of ISCU (UniProt Q9H1K1), the NP40-soluble protein abundance runs as follows: (concentration: 0.1mM) 0.981 ± 0.041; (concentration: 0.5mM) 0.997 ± 0.056.

On to DNTTIP1 (UniProt Q9H147), for which the NP40-soluble protein abundance is, setting by setting: (concentration: 0.1mM) 0.998 ± 0.03; (concentration: 0.5mM) 1.01 ± 0.057.

With “Q9NPA5 and related entries (UniProt Q9NTW7)”, the NP40-soluble protein abundance (concentration: 0.1mM) worked out at 0.98 ± 0.014 and the NP40-soluble protein abundance (concentration: 0.5mM) stood at 0.996 ± 0.02.

With WDR11 (UniProt Q9BZH6), the NP40-soluble protein abundance is, setting by setting: (concentration: 0.1mM) 1.02 ± 0.027; (concentration: 0.5mM) 0.995 ± 0.05.

On to UniProt Q9H0G5, for which the NP40-soluble protein abundance (concentration: 0.1mM) worked out at 1.036 ± 0.0043 and the NP40-soluble protein abundance (concentration: 0.5mM) is 1 ± 0.027.

As to PDF (UniProt Q9HBH1), the NP40-soluble protein abundance is, setting by setting: (concentration: 0.1mM) 0.994 ± 0.047; (concentration: 0.5mM) 0.986 ± 0.046.

As to UniProt Q9NPA8 and related entries, the NP40-soluble protein abundance reads like this: (concentration: 0.1mM) 1.03 ± 0.087; (concentration: 0.5mM) 1.1 ± 0.16.

With CDT1 (UniProt Q9H211), the NP40-soluble protein abundance runs as follows: (concentration: 0.1mM) 1.04 ± 0.035; (concentration: 0.5mM) 1.03 ± 0.068.

In the case of UniProt Q9GZP4, the NP40-soluble protein abundance by setting is: (concentration: 0.1mM) 1 ± 0.043; (concentration: 0.5mM) 0.984 ± 0.04.

As for UniProt Q9GZT8 and related entries, the NP40-soluble protein abundance runs as follows: (concentration: 0.1mM) 1 ± 0.015; (concentration: 0.5mM) 0.981 ± 0.046.

Turning to UniProt Q9C037 and related entries, the NP40-soluble protein abundance runs as follows: (concentration: 0.1mM) 0.995 ± 0.013; (concentration: 0.5mM) 0.967 ± 0.035.

Regarding UniProt Q9H098 and related entries, the NP40-soluble protein abundance runs as follows: (concentration: 0.1mM) 0.979 ± 0.07; (concentration: 0.5mM) 0.954 ± 0.087.

On to MRPL46 (UniProt Q9H2W6), for which the NP40-soluble protein abundance is, setting by setting: (concentration: 0.1mM) 1.01 ± 0.031; (concentration: 0.5mM) 1.02 ± 0.025.

Take NCOA5 (UniProt Q9HCD5): the NP40-soluble protein abundance (concentration: 0.1mM) worked out at 0.992 ± 0.053 and the NP40-soluble protein abundance (concentration: 0.5mM) was found to be 1.06 ± 0.055.

On to UniProt Q9H2H8 and related entries, for which the NP40-soluble protein abundance was found to be 1.01 ± 0.049 (concentration: 0.1mM) and 1 ± 0.044 (concentration: 0.5mM).

In the case of PUS7L (UniProt Q9H0K6), the NP40-soluble protein abundance by setting is: (concentration: 0.1mM) 1 ± 0.047; (concentration: 0.5mM) 0.987 ± 0.014.

As for GOLPH3 (UniProt Q9H4A6), the NP40-soluble protein abundance by setting is: (concentration: 0.1mM) 1.03 ± 0.038; (concentration: 0.5mM) 1.03 ± 0.042.

For WDR55 (UniProt Q9H6Y2), the NP40-soluble protein abundance reads like this: (concentration: 0.1mM) 1.05 ± 0.015; (concentration: 0.5mM) 1.01 ± 0.04.

Take SCPEP1 (UniProt Q9HB40): the NP40-soluble protein abundance is, setting by setting: (concentration: 0.1mM) 0.987 ± 0.045; (concentration: 0.5mM) 0.95 ± 0.059.

With UniProt Q9H6D7, the NP40-soluble protein abundance (concentration: 0.1mM) turned out to be 1.01 ± 0.012 and the NP40-soluble protein abundance (concentration: 0.5mM) was 1.03 ± 0.011.

UniProt Q9H425 and related entries: the NP40-soluble protein abundance reads like this: (concentration: 0.1mM) 0.992 ± 0.024; (concentration: 0.5mM) 1.03 ± 0.043.

In the case of CCDC134 (UniProt Q9H6E4), the NP40-soluble protein abundance was found to be 1.01 ± 0.021 (concentration: 0.1mM) and 1.02 ± 0.044 (concentration: 0.5mM).

Take UniProt Q9H334 and related entries: the NP40-soluble protein abundance (concentration: 0.1mM) was 0.947 ± 0.024 and the NP40-soluble protein abundance (concentration: 0.5mM) amounted to 1.016 ± 0.0046.

As to UniProt Q9NPI1 and related entries, the NP40-soluble protein abundance worked out at 1.06 ± 0.014 (concentration: 0.1mM) and 1.06 ± 0.075 (concentration: 0.5mM).

For the target UniProt Q9H9A5 and related entries, the NP40-soluble protein abundance by setting is: (concentration: 0.1mM) 1.01 ± 0.033; (concentration: 0.5mM) 0.974 ± 0.029.

As for PTGES2 (UniProt Q9H7Z7), the NP40-soluble protein abundance by setting is: (concentration: 0.1mM) 0.994 ± 0.056; (concentration: 0.5mM) 0.972 ± 0.056.

As for UniProt Q9H330-2, the NP40-soluble protein abundance was found to be 0.976 ± 0.025 (concentration: 0.1mM) and 0.988 ± 0.051 (concentration: 0.5mM).

With UniProt Q9C0F1, the NP40-soluble protein abundance reads like this: (concentration: 0.1mM) 0.993 ± 0.029; (concentration: 0.5mM) 1.03 ± 0.046.

In the case of PLEKHF2 (UniProt Q9H8W4), the NP40-soluble protein abundance is, setting by setting: (concentration: 0.1mM) 0.977 ± 0.043; (concentration: 0.5mM) 0.996 ± 0.051.

Regarding SPC25 (UniProt Q9HBM1), the NP40-soluble protein abundance stood at 0.994 ± 0.031 (concentration: 0.1mM) and 0.999 ± 0.059 (concentration: 0.5mM).

For the target UniProt Q9H1I8 and related entries, the NP40-soluble protein abundance (concentration: 0.1mM) was found to be 1.01 ± 0.018 and the NP40-soluble protein abundance (concentration: 0.5mM) was 1.02 ± 0.023.
